Converted amounts (≈) assume the structure as drawn.
System: Candida albicans
Test: Antimicrobial activity against Candida albicans
Type: functional
How it was run: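 Broth microdilution in 96-well plates. Inoculum was a 24 h Candida albicans culture diluted in Sabouraud dextrose broth. Incubation was at 30 or 37 °C. MIC was taken as the lowest concentration giving at least 80% growth inhibition.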

C[C@@H]1[C@H](O)[C@@H](C)/C=C/C=C/C=C/C=C/C=C/C=C/C=C/[C@H](O[C@@H]2O[C@H](C)[C@@H](O)[C@H](N)[C@@H]2O)C[C@@H]2O[C@](O)(C[C@@H](O)C[C@@H](O)[C@H](O)CC[C@@H](O)C[C@@H](O)CC(=O)O[C@H]1C)C[C@H](O)[C@H]2C(=O)O [AMPHOTERICIN B]
MIC: 0.2 µg/mL (≈ 0.216 µM)

— ChEMBL document CHEMBL1141852, “Two auronols from Pseudolarix amabilis” (1999)
